Library screening results

Sequences of proteins named here, by UniProt entry; tags and fusion partners are left off.
UniProt E9BF75, entry or part of it: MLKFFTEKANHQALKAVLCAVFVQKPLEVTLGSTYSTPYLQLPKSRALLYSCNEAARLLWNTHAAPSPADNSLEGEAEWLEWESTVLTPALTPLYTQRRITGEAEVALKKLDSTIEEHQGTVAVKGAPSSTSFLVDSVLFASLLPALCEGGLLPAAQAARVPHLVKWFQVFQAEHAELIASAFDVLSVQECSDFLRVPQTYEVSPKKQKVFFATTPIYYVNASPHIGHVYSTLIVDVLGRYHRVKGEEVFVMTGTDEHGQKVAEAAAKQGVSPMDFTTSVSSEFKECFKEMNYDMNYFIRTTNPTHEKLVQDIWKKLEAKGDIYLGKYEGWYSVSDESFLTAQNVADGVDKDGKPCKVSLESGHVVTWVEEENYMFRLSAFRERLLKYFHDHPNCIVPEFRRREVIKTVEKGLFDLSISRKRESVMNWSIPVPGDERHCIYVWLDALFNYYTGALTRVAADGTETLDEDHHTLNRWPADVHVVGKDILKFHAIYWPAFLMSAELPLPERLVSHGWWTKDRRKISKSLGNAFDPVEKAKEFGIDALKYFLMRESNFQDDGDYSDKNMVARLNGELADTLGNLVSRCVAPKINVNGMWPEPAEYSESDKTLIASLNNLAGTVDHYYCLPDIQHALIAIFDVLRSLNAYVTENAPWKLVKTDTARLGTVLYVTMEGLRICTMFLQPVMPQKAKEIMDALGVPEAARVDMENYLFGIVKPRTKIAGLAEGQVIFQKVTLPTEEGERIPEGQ

From ChEMBL document CHEMBL3988442, “University of Dundee, Small-Polar-MMV Screening Library” (2021).

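Primary screen of methionyl-tRNA synthetase; the read-out is not stated. Target: Methionyl-tRNA synthetase (putative), Leishmania donovani (UniProt E9BF75). The test concentration is not given. Values are per cent inhibition. Of about 68,000 compounds tested this way, about 24 (0.035%) reached 50% or more in at least one test.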

All values are in %.
The record does not define 0% and 100%; most values in the screen are far below 50% and negative numbers occur (in some assays of this library far below -100).
Compounds were drawn at random from those tested, without regard to their results.

Compound,inhibition
CCCNC(=O)NC(=O)CN(CC(C)O)c1ccccc1 (stereo not drawn),15.28
O=C1NCCCc2[nH]c(-c3nc(C4CCCCC4)no3)nc21,3.472
Cc1nc(CNCc2c(C)nn(C)c2N2CCOCC2)cs1,16.33
CC(C)C(=O)N1CCCN(C(=O)NC2CCc3ccccc3C2)CC1 (stereo not drawn),-2.211
CN1Cc2ccccc2CC2(CCN(Cc3nccn3C)CC2)C1=O,17.49
CO[C@H]1CCN(C(=O)c2ccc3oc(C)cc3c2)C[C@@]12CCCO2,15.76
CCc1noc(CN(C)C(=O)c2ccnc(OC3CCC3)c2)n1,6.522
CN(C(=O)Cc1coc(-c2cccs2)n1)C1(C#N)CCC1,16.04
O=C(CNC(Cn1cccn1)c1ccccc1)Nc1cnccn1 (stereo not drawn),3.916
O=C(Nc1cccnc1)NC1CCN(c2ccccc2OC(F)F)C1 (stereo not drawn),19.64
CCn1cc(CN2C[C@@H]3CCCN3C[C@@H]2CCSC)cn1,13.59
CS(=O)(=O)NCCC1CCCCN1C(=O)NCCc1ccccc1 (stereo not drawn),4.061
Cc1nn(C)c(N2CCOCC2)c1CNCc1ccc(CO)c(F)c1,21.55
CN(CCO)Cc1nnc(C2CCN(C(=O)c3ccccn3)CC2)n1C,16.2
CCS(=O)(=O)N1CCOC2(CCCN(c3ccccn3)C2)C1 (stereo not drawn),8.889
CC(NC1CCCC1)c1ccccc1-n1cccn1 (stereo not drawn),4.789
O=C(c1nccc2ccccc12)N(Cc1ccco1)CC1CCCO1 (stereo not drawn),-4.348
Cc1cc(C)n(C2CCCN(C(=O)Cc3csc(C)n3)C2)n1 (stereo not drawn),2.347
COc1ccc(CN2CCCN(C(=O)C(C)n3ccnc3)CC2)cc1 (stereo not drawn),1.093
CCn1cnnc1C1CCN(C(=O)c2ccc(Cl)cc2OC)CC1,19.09
CCc1cnc(CN(C(C)=O)C2CCN(CCS(C)(=O)=O)C2)o1 (stereo not drawn),5.31
CCc1ccc(OCCn2cccn2)cc1,2.695
CCOc1ccc2oc(-c3cn(C)nc3C)c(O)c(=O)c2c1,3.133
CCOC1CCN(CCc2nc(-c3cccc(Cl)c3)no2)CC1,0.7246
Cc1ncsc1C(=O)NC1CCN(c2ncccc2C#N)CC1,12.42
O=C1CC(NCc2ccccn2)CN1CCc1ccc(F)cc1 (stereo not drawn),4.604
CCOc1cccc(NCc2cnc(N3CCN(C)CC3)nc2)n1,15.88
Oc1ccccc1-c1n[nH]c(C2CC2)n1,12.18
c1ccc2c(c1)N(CC1CCOC1)CC21CCN(c2cnccn2)CC1 (stereo not drawn),12.92
COc1ccc(NC(C)=O)cc1S(=O)(=O)Nc1ccon1,10.76
CS(=O)(=O)N1C[C@@H]2OCC(=O)N(CC3CC3)[C@@H]2C1,2.747
CC(C)c1nnc2n1CCN(Cc1ncc(-c3ccccc3)o1)C2,16.94
CS(=O)(=O)N1CCO[C@@H]2CN(Cc3ccncc3)C[C@@H]2C1,9.343
Cc1ccc(C(C)N(C)C(=O)c2ccc(=O)n(C)c2)s1 (stereo not drawn),4.19
CN(C)S(=O)(=O)c1csc(C(=O)N2CCSCC2)c1,0.7692
Cc1ccccc1CN1CCN(C(=O)c2ccn(C(C)(C)C)c2)CC1,8.639
O=C(c1ccno1)N1CC[C@@H]2O[C@H](COCCN3CCCC3)CC[C@@H]21,9.333
CSCCc1c(-c2ccccc2)ncn1CC(C)(C)N1CCCC1,17.79
C[C@@H]1CN(c2ccc(Cl)cn2)C[C@@]1(O)C1CC1,16.51
O=C(O)CCn1nc(C(F)(F)F)c(Cl)c1C1CC1,16.43
CC(C)N1CCC(Cc2cncc(-c3cccc(C(=O)O)c3)n2)C1 (stereo not drawn),20.83
CC(C)c1nccn1Cc1cc(C(=O)NCC(C)n2ccnc2)n[nH]1 (stereo not drawn),14.66
c1cncc(CN2CCc3ncnc(C4CCOC4)c3CC2)c1 (stereo not drawn),6.62
CC(C)(C)c1ccc(OCC(=O)O)c(CN2C[C@H]3C[C@H](O)C[C@H]3C2)c1,12.73
Cc1nc(CN2CCC(CNC(=O)Nc3ccccc3)CC2)oc1C,9.964
CCOCC1CCCN(C(=O)NCc2ccc(-c3ccn[nH]3)cc2)C1 (stereo not drawn),6.425
O=C(N[C@@H]1CN(Cc2ccc3[nH]ccc3c2)C[C@H]1O)c1cscn1,8.235
O=C(Cc1ccc2c(c1)OCCO2)N1CCCC(n2ccnc2)C1 (stereo not drawn),9.028
Cn1c(CN2CC[C@](C)(O)C(C)(C)C2)cc2ccccc21,9.214
O=C(c1ccc(-n2ccnc2)nc1)N1CCCC(n2cccn2)C1 (stereo not drawn),15.31
Cc1nc(CN(C)C2CCCN(c3cccnn3)C2)no1 (stereo not drawn),5.263
CCN(Cc1ccncc1)C(=O)CCn1c(C)cc2ccccc21,19.55
Cn1nc(Br)nc1Sc1ccccc1NC(=O)C1CC1,9.492
O=C(Nc1nncs1)N1CCC(c2ccc(O)cc2)CC1,14.73
CC(OCC1CC1)C(=O)N1CCCN(c2ncccc2C#N)CC1 (stereo not drawn),7.874
CCN(C(=O)CSc1ccc(C(F)(F)F)cn1)C1CC1,13.04
CC(C)c1nc(CN(C)C2CCN(Cc3nnc(C4CC4)o3)C2)no1 (stereo not drawn),14.75
C[C@@H](NC(=O)c1cccs1)c1onc(-c2cccnc2)c1C(=O)O,2.256
O=C1CCOCCN1Cc1ccc(Cl)c(F)c1,9.045

Some entries from above, unchanged:

{"compound": "CCN(Cc1ccncc1)C(=O)CCn1c(C)cc2ccccc21", "inhibition": 19.55}
{"compound": "Cn1nc(Br)nc1Sc1ccccc1NC(=O)C1CC1", "inhibition": 9.492}
{"compound": "CN(C(=O)Cc1coc(-c2cccs2)n1)C1(C#N)CCC1", "inhibition": 16.04}
{"compound": "Oc1ccccc1-c1n[nH]c(C2CC2)n1", "inhibition": 12.18}
{"compound": "CC(C)N1CCC(Cc2cncc(-c3cccc(C(=O)O)c3)n2)C1", "stereo": "stereo not drawn", "inhibition": 20.83}